Assay results reported in patent publication US20250127918A1 (priority 2023, published 2025).

Experiment: general procedure: Fmoc solid-phase peptide synthesis in flow; ChemMatrix H-Rink Amide resin ([…], 150 mg; […] for GLP-01); HATU/DIEA (manual coupling of unnatural amino acids); PyAOP for Aib and N-termin
Conditions: late stage modification step

**Q.** With “H2N-PEG8- FNMQQQRRFYEALHD PNLNHcyEQRNAKIKSI RDD” as the substance, how does the step yield read?
**A.** Its step yield is 58%.
